Data from PMC8617944, “Preclinical Pharmacokinetics and Acute Toxicity in Rats of 5-{[(2E)-3-Bromo-3-carboxyprop-2-enoyl]amino}-2-hydroxybenzoic Acid: A Novel 5-Aminosalicylic Acid Derivative with Potent Anti-Inflammatory Activity” (Molecules, 2021).
“And” between values parts separate entries of the source, which are not always exact repeats. Identical values can stand only once. The source gives many values for each of these; only a part stands here.

Experiments:
[1] = Pharmacokinetic profiles after p.o., i.p. and i.v. administration; assay type: in vivo, Wistar rats; settings: plasma, i.v. 50 mg/kg, individual rats
Experimental: On the same day as C1 administration, the rats (three groups, n = 6) were previously cannulated for compound administration by the p.o., i.p., and i.v. routes. A 24 G catheter was placed in the right lateral tail vein for blood collection. A first group of rats received a single dose of 50 mg/kg applied p.o. with a 20 G gavage needle. A dose of 75 mg/kg of C1 was injected i.p. into the rats in the second group. A single dose of 50 mg/kg was given i.v. to the third group by means of another catheter previously placed in the left lateral tail vein. The doses used in this study were selected based on previous pharmacokinetic studies reported in rats for 5-ASA [60] or for derivatives of this compound [61]. Animals were provided with the standard diet 4 h after dosing. […] The volume of blood removed was supplemented with an equal volume of 0.9% sodium chloride solution. The blood samples were centrifuged at 8000 rpm for 15 min to harvest 100 μL of plasma.
Plasma samples were processed immediately. Briefly, 450 µL of acetonitrile was added to 100 µL of plasma and vortexed for 5 min. Subsequently, 450 µL of methanol was added, and the sample was vortexed again, followed by centrifugation to precipitate the proteins. Finally, 10 µL of the supernatant were used for evaluation of the plasma concentration of C1 by RP-HPLC with the UV detection method, previously validated for the pharmacokinetic and complementary assays herein performed.
The plasma concentration–time data were plotted. […] Pharmacokinetic parameters of C1 were calculated on Kinetica 5.0 software (Adept Scientific Ltd), including the maximum plasma concentration (Cmax), time to maximum plasma concentration (tmax), elimination half-life (t1/2e), the area under the plasma concentration-time curve from time zero to the last measurable concentration (AUC0-t), the area under the plasma concentration-time curve from time zero to infinity (AUCtot), mean residence time (MRT), clearance (CL), and apparent volume of distribution (Vd).

[2] = Distribution of C1 in tissues; assay type: in vivo, Wistar rats; settings: p.o. 75 mg/kg, individual rats
Experimental: Fifteen male Wistar rats were distributed in five groups (n = 3) and rats were orally administered C1 at a single dose of 75 mg/kg. Subsequently, a group of animals was sacrificed (n = 3) at 10, 30, 90, 180, and 360 min. […] All tissues and organs were weighed on an analytical balance and immediately processed. Each tissue sample was homogenized with saline solution in a 1:3 (wt/v) ratio. The preparation process for analysis was the same as described above for plasma samples [57] (File S8).

Compound: O=C(/C=C(/Br)C(=O)O)Nc1ccc(O)c(C(=O)O)c1 [Compound C1, 5-{[(2E)-3-bromo-3-carboxyprop-2-enoyl]amino}-2-hydroxybenzoic acid]
- Concentration (µg/mL), Rat 1-6 ([1]; 5 min, 50 mg/kg): 9.46 µg/mL and 10.58 µg/mL and 13.45 µg/mL and 12.78 µg/mL and 6.12 µg/mL and 10.60 µg/mL
- Concentration (µg/mL), Rat 1-6 ([1]; 10 min, 50 mg/kg): 6.51 µg/mL and 8.18 µg/mL and 10.41 µg/mL and 9.22 µg/mL and 4.69 µg/mL and 7.90 µg/mL
- Concentration (µg/mL), Rat 1-6 ([1]; 20 min, 50 mg/kg): 5.61 µg/mL and 4.71 µg/mL and 7.76 µg/mL and 8.22 µg/mL and 3.57 µg/mL and 6.00 µg/mL
- Concentration (µg/mL), Rat 1-6 ([1]; 30 min, 50 mg/kg): 5.18 µg/mL and 4.54 µg/mL and 7.54 µg/mL and 6.66 µg/mL and 2.58 µg/mL and 5.30 µg/mL
- Concentration (µg/mL), Rat 1-6 ([1]; 45 min, 50 mg/kg): 4.49 µg/mL and 3.33 µg/mL and 5.77 µg/mL and 5.41 µg/mL and 1.92 µg/mL and 4.23 µg/mL
- Concentration (µg/mL), Rat 1-6 ([1]; 60 min, 50 mg/kg): 4.16 µg/mL and 4.12 µg/mL and 5.48 µg/mL and 5.26 µg/mL and 1.05 µg/mL and 4.00 µg/mL
- Concentration (µg/mL), Rat 1-6 ([1]; 90 min, 50 mg/kg): 3.20 µg/mL and 2.30 µg/mL and 5.38 µg/mL and 4.50 µg/mL and 1.00 µg/mL and 3.80 µg/mL
- Concentration (µg/mL), Rat 1-6 ([1]; 120 min, 50 mg/kg): 2.84 µg/mL and 1.19 µg/mL and 2.49 µg/mL and 2.30 µg/mL and 0.80 µg/mL and 3.40 µg/mL
- Concentration (µg/mL), Rat 1-6 ([1]; 180 min, 50 mg/kg): 1.87 µg/mL and 1.30 µg/mL and 1.80 µg/mL and 1.60 µg/mL and 0.73 µg/mL and 1.45 µg/mL
- Concentration (µg/mL), Rat 1-6 ([1]; 240 min, 50 mg/kg): 1.80 µg/mL and 1.24 µg/mL and 1.65 µg/mL and 1.50 µg/mL and 0.62 µg/mL and 1.34 µg/mL
- Concentration (µg/mL), Rat 1-6 ([1]; 300 min, 50 mg/kg): 1.29 µg/mL and 1.17 µg/mL and 1.70 µg/mL and 1.27 µg/mL and 0.51 µg/mL and 1.20 µg/mL
- Concentration (µg/mL), Rat 1-6 ([1]; 360 min, 50 mg/kg): 1.00 µg/mL and 0.90 µg/mL and 0.80 µg/mL and 0.72 µg/mL and 0.40 µg/mL and 0.71 µg/mL
- Concentration (µg/mL), Rat 1-6 ([1]; 540 min): 0.00 µg/mL
- Concentration (µg/mL), Rat 1-6 ([1]; 720 min): 0.00 µg/mL
- Concentration (µg/mL) at 10 minutes, Rat 1-3 ([2]; Brain): 2.8 µg/mL and 4.3 µg/mL
- Concentration (µg/mL) at 6 h, Rat 1-3 ([2]; Brain): 2.2 µg/mL
- Concentration (µg/mL) at 6 h, Rat 1-3 ([2]; Colon): 2.2 µg/mL and 12.6 µg/mL and 3.2 µg/mL
- Concentration (µg/mL) at 6 h, Rat 1-3 ([2]; Hearth): 3.4 µg/mL and 2.3 µg/mL
- Concentration (µg/mL) at 6 h, Rat 1-3 ([2]; Kidney): 2.5 µg/mL and 5.7 µg/mL and 4.1 µg/mL
- Concentration (µg/mL) at 6 h, Rat 1-3 ([2]; Liver): 2.5 µg/mL and 6.3 µg/mL and 3.6 µg/mL
- Concentration (µg/mL) at 6 h, Rat 1-3 ([2]; Lung): 3.0 µg/mL and 4.3 µg/mL and 11.5 µg/mL
- Concentration (µg/mL) at 10 minutes, Rat 1-3 ([2]; Muscle): 3.8 µg/mL and 5.6 µg/mL
- Concentration (µg/mL) at 6 h, Rat 1-3 ([2]; Muscle): 0.551 µg/mL and 2.6 µg/mL and 4.4 µg/mL
- Concentration (µg/mL) at 10 minutes, Rat 1-3 ([2]; Small intestine): 34.8 µg/mL and 19.7 µg/mL and 40.1 µg/mL
- Concentration (µg/mL) at 6 h, Rat 1-3 ([2]; Small intestine): 14.1 µg/mL and 7.2 µg/mL
- Concentration (µg/mL) at 6 h, Rat 1-3 ([2]; Spleen): 5.0 µg/mL and 14.0 µg/mL and 4.5 µg/mL
- Concentration (µg/mL) at 6 h, Rat 1-3 ([2]; Stomach): 2.6 µg/mL and 7.4 µg/mL and 4.1 µg/mL
- Concentration (µg/mL) at 10 minutes, Rat 1-3 ([2]; Testis): 13.3 µg/mL and 5.7 µg/mL and 10.7 µg/mL
- Concentration (µg/mL) at 6 h, Rat 1-3 ([2]; Testis): 3.1 µg/mL and 4.1 µg/mL
